# Results reported in US20050288351A1, “Azaspiro compounds for the treatment of pain” (Schwarz Pharma AG, priority 2002, published 2005).
# Test system: NMRl mice
# Assay: formalin test, in-vivo test for determining the analgesic efficacy
# Details: 8 mg/kg, average of 9 test series
# Procedure: FIG. 1 and Table 1 show the reaction of test animals (10 mice each) 20-45 minutes after the intraperitoneal administration of selected compounds. In each case, the maximum dosage selected for the concentration of azaspiro compounds was held, by a factor of about 2, below the toxic dose previously determined in the IRWIN test (Irwin, Psychopharmacologia 13 (1968) 222).
# For the purpose of this patent application, the term “mean deviation of the pain reaction” refers to a relative deviation that is obtained when the average time of pain reaction of 10 animals treated with active agents in a test series as described in implementation Example #8 is compared, over a defined period (20-25′, 30-35′ or 40-45′ after formalin injection), with the average time of the pain reaction of 10 control animals treated with an excipient. A reduction in the pain reaction is expressed in negative percentage figures.
# The test was conducted as described by Wheeler-Aceto (Psychopharmacology 104, 1991, 35).
# NMRl mice having a weight of 20-25 g were kept under controlled conditions (22±2° C., 40-70% relative humidity). 25 μl of a 5% […] solution was injected in the hind leg and the leg-licking frequency was then clocked for 5 minutes each at defined intervals (20, 30, 40 minutes).
# First, the highest possible non-toxic concentration of the respective test substances that could be used was determined by an IRWIN test (Irwin, Psychopharmacologia 13, 1968, 222).
# The test substances were dissolved in a physiological salt solution with 0.5% sodium carboxymethyl cellulose and were each measured in 1-3 dosages that had been applied intraperitoneally 10 minutes before administration of formalin. The comparative reference value was provided by a control excipient (10 ml/kg).
# The test was performed in blind fashion on 10 mice per test series. The evaluation was based on a comparison of the treated animals with control excipients at three different times. […] The statistical significance was determined using the Mann-Whitney U-test.
compound,measurement,setting,value
"CN1CC[C@]23c4c5ccc(O)c4O[C@H]2[C@@H](O)C=C[C@H]3[C@H]1C5 [Morphine, reference compound]",Mean deviation of the pain reaction compared to control (%) (n minutes after administration of formalin) 20-25′,20-25′ after formalin,−87%
same,Mean deviation of the pain reaction compared to control (%) (n minutes after administration of formalin) 30-35′,30-35′ after formalin,−95%
same,Mean deviation of the pain reaction compared to control (%) (n minutes after administration of formalin) 40-45′,40-45′ after formalin,−88%
